Laboratory results as given in PMC7979793.
No constants are given. Whether binding was seen depends on the method and setting. Binding seen in cells or lysates may run through a third protein. Some results given as binding are weak or reduced against the parent protein; the word gives no strength. For part of these data: Tags and fused reporters may be left off the sequences shown.

The chains behind the UniProt entries cited, without tags or fusion partners. Residues count along the entry.
UniProt P34931: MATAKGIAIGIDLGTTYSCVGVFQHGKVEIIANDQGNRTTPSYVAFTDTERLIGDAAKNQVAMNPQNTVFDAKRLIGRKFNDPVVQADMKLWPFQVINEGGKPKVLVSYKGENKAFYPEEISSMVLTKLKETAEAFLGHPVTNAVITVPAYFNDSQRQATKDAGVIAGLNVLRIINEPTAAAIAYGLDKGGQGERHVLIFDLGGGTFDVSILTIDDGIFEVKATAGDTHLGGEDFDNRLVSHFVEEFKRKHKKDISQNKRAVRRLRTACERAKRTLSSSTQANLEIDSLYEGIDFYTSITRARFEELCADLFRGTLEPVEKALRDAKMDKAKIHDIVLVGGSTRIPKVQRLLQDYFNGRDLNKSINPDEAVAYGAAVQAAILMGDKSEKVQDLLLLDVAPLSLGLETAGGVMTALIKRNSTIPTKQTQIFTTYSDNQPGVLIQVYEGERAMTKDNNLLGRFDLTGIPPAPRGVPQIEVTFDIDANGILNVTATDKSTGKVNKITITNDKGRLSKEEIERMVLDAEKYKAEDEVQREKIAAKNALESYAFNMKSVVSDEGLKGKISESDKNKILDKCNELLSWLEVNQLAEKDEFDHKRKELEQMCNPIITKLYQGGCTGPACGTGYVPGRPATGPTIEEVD
UniProt P16627: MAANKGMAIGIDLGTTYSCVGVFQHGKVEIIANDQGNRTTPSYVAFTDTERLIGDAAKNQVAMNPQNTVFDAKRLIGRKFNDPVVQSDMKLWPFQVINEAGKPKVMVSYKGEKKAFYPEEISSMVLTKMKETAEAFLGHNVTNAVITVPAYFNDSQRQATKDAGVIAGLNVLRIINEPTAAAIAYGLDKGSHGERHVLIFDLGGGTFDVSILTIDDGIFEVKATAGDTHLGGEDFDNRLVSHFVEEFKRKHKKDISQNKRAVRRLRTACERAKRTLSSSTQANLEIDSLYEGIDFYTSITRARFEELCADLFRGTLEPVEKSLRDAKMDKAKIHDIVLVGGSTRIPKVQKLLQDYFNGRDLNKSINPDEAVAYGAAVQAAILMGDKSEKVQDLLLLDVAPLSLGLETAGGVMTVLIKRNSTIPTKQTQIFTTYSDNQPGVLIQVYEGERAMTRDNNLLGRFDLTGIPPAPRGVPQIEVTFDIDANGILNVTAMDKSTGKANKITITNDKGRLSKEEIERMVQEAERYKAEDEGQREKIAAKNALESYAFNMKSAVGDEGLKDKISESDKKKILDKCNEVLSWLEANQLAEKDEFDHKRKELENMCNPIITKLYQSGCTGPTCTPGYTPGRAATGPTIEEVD
UniProt P11021, residues 19-654: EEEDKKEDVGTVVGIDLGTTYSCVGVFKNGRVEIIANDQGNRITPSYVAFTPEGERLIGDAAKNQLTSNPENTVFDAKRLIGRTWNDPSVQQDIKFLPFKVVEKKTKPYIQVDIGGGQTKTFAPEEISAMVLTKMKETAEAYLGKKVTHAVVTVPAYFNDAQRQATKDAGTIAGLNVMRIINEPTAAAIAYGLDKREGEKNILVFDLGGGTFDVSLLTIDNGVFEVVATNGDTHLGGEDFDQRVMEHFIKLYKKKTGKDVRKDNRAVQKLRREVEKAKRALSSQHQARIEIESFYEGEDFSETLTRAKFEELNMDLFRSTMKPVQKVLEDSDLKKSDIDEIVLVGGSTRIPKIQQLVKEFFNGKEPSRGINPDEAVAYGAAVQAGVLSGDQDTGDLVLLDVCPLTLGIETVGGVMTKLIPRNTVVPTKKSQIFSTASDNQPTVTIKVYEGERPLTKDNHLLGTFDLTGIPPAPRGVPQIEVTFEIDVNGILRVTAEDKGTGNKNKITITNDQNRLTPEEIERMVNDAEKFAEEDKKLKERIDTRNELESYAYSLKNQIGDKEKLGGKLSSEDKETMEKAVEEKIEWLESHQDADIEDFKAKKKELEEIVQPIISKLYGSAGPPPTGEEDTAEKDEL

T1: recombinant human vaspin protein (human) (UniProt Q8IW75)
T1 sequence: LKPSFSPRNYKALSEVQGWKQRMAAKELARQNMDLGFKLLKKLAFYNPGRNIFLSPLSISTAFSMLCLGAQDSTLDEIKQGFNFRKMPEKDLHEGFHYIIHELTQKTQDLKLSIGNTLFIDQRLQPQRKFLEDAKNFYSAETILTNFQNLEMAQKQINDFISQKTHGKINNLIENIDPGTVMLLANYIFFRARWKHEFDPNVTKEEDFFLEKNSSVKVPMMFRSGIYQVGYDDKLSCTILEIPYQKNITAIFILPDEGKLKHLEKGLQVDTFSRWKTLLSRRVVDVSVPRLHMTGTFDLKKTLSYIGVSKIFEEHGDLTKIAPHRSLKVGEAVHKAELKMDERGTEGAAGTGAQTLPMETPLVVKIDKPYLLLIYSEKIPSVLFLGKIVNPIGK

T2: 3xFLAG-Vaspin (visceral adipose tissue-derived serine protease inhibitor, SERPINA12), expressed in HEK293T cells (human) (UniProt Q8IW75)
T2 sequence: T1 sequence

T3: 3xFLAG-Vaspin (visceral adipose tissue-derived serine protease inhibitor, SERPINA12), expressed in HK2 cells (human) (UniProt Q8IW75)
T3 sequence: T1 sequence

B1: recombinant human vaspin protein (protein, UniProt Q8IW75 21-414)
chain: T1 sequence

How the values were obtained:
[1] = target: T1, recombinant human vaspin protein (human); test: co-IP; kidney lysates of mice injected with rhVaspin, immunoprecipitated with vaspin antibody, SDS-PAGE, detection with HSPA1L antibody; only the target purified
[2] = target: T2, 3xFLAG-Vaspin (visceral adipose tissue-derived serine protease inhibitor, SERPINA12), expressed in HEK293T cells (human); test: co-IP; HEK293T cells expressing p3xFLAG-Vaspin (alone or with pGFP-GRP78 or pGFP-HSPA1L); lysates precleared with sepharose 4B, precipitated with ANTI-FLAG M2 affinity agarose gel, Western blot
[3] = target: T3, 3xFLAG-Vaspin (visceral adipose tissue-derived serine protease inhibitor, SERPINA12), expressed in HK2 cells (human); test: co-IP; HK2 cells expressing p3xFLAG-Vaspin, treated with 1 ug/ml tunicamycin or 1 uM thapsigargin; lysate precipitated with ANTI-FLAG M2 affinity agarose gel, blot for GRP78
[4] = target: 3xFLAG-GFP-HSPA1L, expressed in HK2 cells (UniProt P34931); test: co-IP; HK2 cells expressing p3xFLAG-GFP-HSPA1L cultured with rhVaspin; lysates precipitated with ANTI-FLAG M2 affinity agarose gel, blot with anti-Vaspin antibody; only the binder purified

| Molecule | binding [2] | further results |
| --- | --- | --- |
| HSPA1L, endogenous in mouse kidney (from UniProt P16627 1-641) |  | binding [1]: binds |
| heat shock protein family A (Hsp70) member 1 like (HSPA1L), endogenous in HEK293T cells (from UniProt P34931 1-641) | binds |  |
| 78 kDa glucose-regulated protein (GRP78), endogenous in HK2 cells (from UniProt P11021 19-654) |  | binding [3]: binds |
| GFP-HSPA1L, expressed in HEK293T cells (from UniProt P34931 1-641) | binds |  |
| GFP-GRP78 (19-654), expressed in HEK293T cells (from UniProt P11021 19-654) | binds |  |
| B1 |  | binding [4]: binds |
